# Patent US10227349B2, “Pyrazolo[1,5-a]pyrimidine compound” (Eisai R&D Management Co., Ltd., priority 2016, dated 2019)
# At least one structure is not confirmed: it was looked up by name or label, or the drawing left a doubt.
# Target: T1, PAR2 (Mus musculus, UniProt P55086)
# T1 construct: orally administered to C57BL/6J male mice (Charles River), 6-10 weeks of age; tissue Charles River; host or cells: Living C57BL/6J male mice (in vivo; saliva secretion)
# T1 sequence (P55086 26-399): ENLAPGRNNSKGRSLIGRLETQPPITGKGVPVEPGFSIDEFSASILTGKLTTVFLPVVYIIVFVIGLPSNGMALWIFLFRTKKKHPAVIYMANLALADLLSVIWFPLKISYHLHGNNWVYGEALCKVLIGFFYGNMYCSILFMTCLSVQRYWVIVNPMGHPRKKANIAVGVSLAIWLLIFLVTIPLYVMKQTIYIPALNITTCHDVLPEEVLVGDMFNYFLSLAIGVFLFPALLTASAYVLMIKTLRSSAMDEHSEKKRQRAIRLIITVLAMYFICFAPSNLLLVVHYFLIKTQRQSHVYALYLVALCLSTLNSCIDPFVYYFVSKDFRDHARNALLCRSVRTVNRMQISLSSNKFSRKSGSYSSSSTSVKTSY
# Experiment: Measurement of PAR2 agonist (SLIGRL-NH2)-induced salivation in mouse
# Format: in vivo
# Conditions: C57BL/6J male mice, 0.3 mg/mL solution 10 mL/kg orally, 60 min before SLIGRL-NH2 i.p., saliva collected 10 min
# Protocol: The test compound was added to a 0.5% carboxymethyl cellulose solution to which 2% DMSO was added, so as to have the final concentration of 0.3 mg/mL, thereby preparing an administration solution containing the test compound. The administration solution containing the test compound (10 mL/kg) was orally administered to C57BL/6J male mice (Charles River), 6-10 weeks of age, using an oral sonde and a syringe. Forty-five minutes after the administration of the test compound, 10 mL/kg of a 20% (w/v) urethane solution was intraperitoneal administered to the mice which were then anesthetized. Sixty minutes after the administration of the test compound, 10 mL/kg of a 0.1 mg/mL SLIGRL-NH2 (SEQ ID NO: 2) solution was intraperitoneally administered as the PAR2 agonist and a cotton ball was immediately placed in the oral cavity of the mouse to collect the saliva. Ten minutes after the administration of the PAR2 agonist, the cotton ball was removed and weighed to measure the amount of saliva secreted.
# Note that Reference Example 1 in Table 4 is Compound (XIX). Additionally, Comparative Compound in Table 4 is Compound (XX).
smiles,measurement,value
"CCCN(c1cc(-c2cc(F)c(Cl)c(F)c2)nc2cc(C(=O)N3C[C@@H]4[C@@H](CC(=O)O)[C@@H]4C3)nn12)C(C)C [Example 15, 2-((1α,5α,6α)-3-(5-(4-chloro-3,5-difluorophenyl)-7-(isopropyl(propyl)amino)pyrazolo[1,5-a]pyrimidine-2-carbonyl)-3-azabicyclo[3.1.0]hexan-6-yl)acetic acid]",Inhibitory activity on the PAR2-dependent saliva secretion (%),91.1%
